No constants are given. Whether binding was seen depends on the method and setting. In cells and extracts the contact can be indirect. Some results given as binding are weak or reduced against the parent protein; the word gives no strength. Sequences can lack the tags named with a protein.
How the values were obtained:
Assay in all cases: pull-down; COS7 cells cotransfected with pEF-BOS-GST and pCAGGS-Myc plasmids, untreated or treated with calyculin A (50 nM, 12 min) with or without Y-27632 (20 uM); lysate (150 mM NaCl, 20 mM Tris-HCl pH 7.5, 1% NP-40) on glutathione-Sepharose 4B beads, 1 h, 4 °C; immunoblot
[1] = biological target: GST-PSD-93-PDZ3-SH3 (WT) (mouse) (UniProt Q91XM9)
[2] = biological target: GST-PSD-93-PDZ3-SH3-T585A/T612A (mouse) (UniProt Q91XM9)
[3] = biological target: GST-PSD-93-PDZ3-SH3-T585D/T612D (mouse) (UniProt Q91XM9)

Measured: binding

B1: Myc-SynGAP1 (protein, UniProt F6SEU4 1-1340)
chain: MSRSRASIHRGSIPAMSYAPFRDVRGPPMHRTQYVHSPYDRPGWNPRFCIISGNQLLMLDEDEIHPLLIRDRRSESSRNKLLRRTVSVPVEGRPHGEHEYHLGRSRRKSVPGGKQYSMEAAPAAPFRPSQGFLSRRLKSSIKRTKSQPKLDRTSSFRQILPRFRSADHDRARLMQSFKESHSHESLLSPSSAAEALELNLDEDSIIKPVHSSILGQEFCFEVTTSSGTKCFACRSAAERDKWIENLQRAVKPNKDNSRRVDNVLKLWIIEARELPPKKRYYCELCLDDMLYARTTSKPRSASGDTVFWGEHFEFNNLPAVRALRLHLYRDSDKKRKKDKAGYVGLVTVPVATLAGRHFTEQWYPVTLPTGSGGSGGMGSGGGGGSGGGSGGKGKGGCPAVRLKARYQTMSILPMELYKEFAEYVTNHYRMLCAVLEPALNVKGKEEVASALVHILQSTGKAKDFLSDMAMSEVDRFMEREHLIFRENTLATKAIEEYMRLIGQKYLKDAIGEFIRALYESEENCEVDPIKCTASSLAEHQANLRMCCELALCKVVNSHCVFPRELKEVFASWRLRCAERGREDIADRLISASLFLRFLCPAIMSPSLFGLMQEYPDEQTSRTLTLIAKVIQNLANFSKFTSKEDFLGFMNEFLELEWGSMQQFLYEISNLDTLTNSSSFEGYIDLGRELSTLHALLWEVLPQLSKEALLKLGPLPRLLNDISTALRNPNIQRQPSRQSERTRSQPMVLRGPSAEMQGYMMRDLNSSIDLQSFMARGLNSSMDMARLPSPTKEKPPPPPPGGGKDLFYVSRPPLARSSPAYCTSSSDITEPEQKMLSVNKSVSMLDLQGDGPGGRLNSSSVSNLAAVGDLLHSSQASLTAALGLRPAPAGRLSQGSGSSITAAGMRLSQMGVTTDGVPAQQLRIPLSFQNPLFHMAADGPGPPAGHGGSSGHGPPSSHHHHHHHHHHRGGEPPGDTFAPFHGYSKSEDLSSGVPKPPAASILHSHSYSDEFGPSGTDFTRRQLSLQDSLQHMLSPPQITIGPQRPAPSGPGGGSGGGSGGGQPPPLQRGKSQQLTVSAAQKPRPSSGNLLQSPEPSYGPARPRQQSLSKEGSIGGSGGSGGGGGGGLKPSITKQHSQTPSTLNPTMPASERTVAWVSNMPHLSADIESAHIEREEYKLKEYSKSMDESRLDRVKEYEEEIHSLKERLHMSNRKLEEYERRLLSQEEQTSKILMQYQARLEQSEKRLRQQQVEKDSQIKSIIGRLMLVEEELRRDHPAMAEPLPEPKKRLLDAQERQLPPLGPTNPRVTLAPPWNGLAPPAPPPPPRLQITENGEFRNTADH
binds: all assays above

— article PMC9820267
